Data taken from the supplement of paper PMC11006884.
The entries are a selection whose mix differs from that of the whole data set.

The chains behind the UniProt entries cited, without tags or fusion partners. Where a name states a change or a piece, a line headed by the entry shows the natural chain unless it says otherwise.
UniProt P46013: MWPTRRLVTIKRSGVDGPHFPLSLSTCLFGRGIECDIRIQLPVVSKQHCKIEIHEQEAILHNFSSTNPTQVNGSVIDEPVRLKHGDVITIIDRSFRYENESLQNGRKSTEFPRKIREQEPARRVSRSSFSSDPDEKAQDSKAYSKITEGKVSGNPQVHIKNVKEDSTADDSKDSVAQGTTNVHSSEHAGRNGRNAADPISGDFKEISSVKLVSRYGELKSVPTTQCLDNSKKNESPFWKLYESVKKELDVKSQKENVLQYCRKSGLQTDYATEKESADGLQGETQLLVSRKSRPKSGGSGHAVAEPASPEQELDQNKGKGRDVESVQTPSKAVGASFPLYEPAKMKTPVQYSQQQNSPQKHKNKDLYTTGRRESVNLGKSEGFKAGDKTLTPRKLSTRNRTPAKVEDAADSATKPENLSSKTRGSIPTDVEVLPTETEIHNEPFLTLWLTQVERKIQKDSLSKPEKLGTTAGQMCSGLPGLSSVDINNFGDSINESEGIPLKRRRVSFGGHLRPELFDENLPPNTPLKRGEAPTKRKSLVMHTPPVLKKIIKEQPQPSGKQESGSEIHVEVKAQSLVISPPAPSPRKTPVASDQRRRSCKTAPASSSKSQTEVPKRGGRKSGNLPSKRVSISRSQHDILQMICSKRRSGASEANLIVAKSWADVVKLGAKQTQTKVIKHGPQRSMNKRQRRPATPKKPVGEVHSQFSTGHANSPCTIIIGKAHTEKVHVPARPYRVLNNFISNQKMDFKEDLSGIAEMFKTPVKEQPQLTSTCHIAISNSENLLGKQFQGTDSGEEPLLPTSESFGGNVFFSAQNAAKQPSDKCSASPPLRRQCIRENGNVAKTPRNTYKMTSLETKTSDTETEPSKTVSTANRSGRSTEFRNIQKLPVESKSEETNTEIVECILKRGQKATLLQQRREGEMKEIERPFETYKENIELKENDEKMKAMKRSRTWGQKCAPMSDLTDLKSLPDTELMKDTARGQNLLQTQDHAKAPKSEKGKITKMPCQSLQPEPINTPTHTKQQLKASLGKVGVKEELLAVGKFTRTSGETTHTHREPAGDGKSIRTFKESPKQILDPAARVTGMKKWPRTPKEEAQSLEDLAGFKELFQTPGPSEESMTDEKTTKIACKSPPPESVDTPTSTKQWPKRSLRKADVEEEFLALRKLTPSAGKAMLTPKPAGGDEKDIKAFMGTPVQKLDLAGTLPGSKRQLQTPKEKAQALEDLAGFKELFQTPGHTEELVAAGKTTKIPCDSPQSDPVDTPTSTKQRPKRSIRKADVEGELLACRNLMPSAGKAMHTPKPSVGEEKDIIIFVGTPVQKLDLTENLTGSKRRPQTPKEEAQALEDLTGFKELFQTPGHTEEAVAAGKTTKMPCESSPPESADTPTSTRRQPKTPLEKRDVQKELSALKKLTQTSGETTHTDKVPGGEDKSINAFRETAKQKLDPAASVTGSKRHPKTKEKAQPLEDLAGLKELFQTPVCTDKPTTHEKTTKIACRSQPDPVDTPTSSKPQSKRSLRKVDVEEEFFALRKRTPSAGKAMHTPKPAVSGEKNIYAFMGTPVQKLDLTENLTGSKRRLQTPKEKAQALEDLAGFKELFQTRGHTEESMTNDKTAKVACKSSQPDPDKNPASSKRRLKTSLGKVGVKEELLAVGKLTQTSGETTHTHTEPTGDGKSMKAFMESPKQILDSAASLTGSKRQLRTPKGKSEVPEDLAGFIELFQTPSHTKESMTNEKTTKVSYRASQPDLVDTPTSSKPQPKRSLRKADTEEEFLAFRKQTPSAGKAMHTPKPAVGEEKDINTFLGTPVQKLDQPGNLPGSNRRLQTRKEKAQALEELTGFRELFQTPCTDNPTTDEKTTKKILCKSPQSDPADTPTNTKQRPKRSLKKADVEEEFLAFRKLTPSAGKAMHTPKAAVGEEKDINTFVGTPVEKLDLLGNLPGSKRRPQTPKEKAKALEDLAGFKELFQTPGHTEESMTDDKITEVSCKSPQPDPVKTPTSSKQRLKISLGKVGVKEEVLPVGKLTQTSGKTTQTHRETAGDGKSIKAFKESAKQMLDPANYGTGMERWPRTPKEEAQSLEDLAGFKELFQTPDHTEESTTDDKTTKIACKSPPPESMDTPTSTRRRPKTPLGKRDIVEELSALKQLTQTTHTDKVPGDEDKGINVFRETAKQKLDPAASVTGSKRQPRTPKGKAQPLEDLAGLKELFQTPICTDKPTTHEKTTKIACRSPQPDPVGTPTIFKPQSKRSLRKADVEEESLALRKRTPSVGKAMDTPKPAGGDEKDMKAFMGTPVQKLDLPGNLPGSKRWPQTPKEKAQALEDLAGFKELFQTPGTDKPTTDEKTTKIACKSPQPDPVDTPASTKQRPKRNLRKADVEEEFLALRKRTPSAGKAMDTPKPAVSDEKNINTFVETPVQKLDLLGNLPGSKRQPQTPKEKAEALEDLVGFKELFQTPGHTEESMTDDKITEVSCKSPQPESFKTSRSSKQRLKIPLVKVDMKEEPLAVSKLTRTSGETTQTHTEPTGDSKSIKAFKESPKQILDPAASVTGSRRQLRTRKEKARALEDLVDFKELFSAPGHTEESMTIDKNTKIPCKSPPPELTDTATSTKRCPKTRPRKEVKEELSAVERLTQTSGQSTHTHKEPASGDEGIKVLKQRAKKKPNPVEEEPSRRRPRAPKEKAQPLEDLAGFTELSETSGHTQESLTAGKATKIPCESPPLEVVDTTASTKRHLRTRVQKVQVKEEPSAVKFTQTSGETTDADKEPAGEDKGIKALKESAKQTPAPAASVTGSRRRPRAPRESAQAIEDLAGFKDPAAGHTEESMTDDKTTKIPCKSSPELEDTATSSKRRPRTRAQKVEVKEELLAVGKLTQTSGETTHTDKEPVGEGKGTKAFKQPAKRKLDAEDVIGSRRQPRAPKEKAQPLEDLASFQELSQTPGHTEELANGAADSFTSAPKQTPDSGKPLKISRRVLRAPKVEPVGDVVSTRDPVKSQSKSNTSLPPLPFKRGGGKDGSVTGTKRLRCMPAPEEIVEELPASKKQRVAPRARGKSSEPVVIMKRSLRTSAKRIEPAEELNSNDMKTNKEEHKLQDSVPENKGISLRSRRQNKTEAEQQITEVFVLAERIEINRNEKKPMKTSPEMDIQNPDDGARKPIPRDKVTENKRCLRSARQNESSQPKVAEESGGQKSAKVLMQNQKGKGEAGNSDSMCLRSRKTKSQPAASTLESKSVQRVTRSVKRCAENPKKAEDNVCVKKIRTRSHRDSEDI
UniProt P48735: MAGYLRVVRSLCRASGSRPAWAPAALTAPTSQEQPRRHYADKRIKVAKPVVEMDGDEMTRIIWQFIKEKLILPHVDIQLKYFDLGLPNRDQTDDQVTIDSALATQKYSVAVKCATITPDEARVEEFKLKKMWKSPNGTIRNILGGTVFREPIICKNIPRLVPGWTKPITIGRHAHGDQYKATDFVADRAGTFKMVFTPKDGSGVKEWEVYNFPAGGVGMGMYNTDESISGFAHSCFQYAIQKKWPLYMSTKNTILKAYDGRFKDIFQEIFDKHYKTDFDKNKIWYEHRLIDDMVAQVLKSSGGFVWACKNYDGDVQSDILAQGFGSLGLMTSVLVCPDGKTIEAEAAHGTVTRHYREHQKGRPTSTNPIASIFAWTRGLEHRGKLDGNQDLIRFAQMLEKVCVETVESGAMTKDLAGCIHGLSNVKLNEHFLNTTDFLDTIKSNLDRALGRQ
UniProt P49585: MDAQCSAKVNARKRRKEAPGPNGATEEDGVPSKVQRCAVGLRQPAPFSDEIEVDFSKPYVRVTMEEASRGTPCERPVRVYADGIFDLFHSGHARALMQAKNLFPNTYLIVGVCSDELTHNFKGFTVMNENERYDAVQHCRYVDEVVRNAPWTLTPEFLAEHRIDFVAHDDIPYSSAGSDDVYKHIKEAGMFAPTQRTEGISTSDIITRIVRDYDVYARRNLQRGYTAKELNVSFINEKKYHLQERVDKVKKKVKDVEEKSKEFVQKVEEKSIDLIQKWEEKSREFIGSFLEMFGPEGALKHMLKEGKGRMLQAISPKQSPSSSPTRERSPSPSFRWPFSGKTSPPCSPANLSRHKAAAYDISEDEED
UniProt P46459: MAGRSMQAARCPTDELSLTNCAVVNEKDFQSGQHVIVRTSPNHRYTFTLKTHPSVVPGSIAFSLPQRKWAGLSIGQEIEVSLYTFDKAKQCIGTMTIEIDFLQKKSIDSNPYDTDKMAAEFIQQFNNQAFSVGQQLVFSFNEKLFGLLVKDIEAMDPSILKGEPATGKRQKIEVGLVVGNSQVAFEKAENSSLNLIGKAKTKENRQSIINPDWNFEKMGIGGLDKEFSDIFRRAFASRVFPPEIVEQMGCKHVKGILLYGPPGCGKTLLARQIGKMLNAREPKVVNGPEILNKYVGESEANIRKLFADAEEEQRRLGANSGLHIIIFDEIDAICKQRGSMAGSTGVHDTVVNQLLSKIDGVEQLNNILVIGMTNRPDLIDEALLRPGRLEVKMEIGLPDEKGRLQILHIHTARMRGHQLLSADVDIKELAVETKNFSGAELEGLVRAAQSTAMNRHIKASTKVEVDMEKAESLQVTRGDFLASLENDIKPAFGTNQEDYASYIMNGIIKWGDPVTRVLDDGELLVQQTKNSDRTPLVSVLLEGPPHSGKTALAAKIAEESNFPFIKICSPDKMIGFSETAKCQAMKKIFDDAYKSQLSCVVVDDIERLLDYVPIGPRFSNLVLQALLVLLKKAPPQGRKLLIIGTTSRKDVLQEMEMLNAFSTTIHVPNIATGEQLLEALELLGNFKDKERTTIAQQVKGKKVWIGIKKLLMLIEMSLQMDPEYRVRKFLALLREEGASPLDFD
UniProt P45973, whole entry, looked up: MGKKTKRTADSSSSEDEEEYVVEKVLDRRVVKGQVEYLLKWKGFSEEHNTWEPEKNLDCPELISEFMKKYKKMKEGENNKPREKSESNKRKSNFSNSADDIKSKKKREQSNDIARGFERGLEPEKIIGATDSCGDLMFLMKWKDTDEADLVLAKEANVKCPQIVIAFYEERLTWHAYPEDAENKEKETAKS
UniProt P43243: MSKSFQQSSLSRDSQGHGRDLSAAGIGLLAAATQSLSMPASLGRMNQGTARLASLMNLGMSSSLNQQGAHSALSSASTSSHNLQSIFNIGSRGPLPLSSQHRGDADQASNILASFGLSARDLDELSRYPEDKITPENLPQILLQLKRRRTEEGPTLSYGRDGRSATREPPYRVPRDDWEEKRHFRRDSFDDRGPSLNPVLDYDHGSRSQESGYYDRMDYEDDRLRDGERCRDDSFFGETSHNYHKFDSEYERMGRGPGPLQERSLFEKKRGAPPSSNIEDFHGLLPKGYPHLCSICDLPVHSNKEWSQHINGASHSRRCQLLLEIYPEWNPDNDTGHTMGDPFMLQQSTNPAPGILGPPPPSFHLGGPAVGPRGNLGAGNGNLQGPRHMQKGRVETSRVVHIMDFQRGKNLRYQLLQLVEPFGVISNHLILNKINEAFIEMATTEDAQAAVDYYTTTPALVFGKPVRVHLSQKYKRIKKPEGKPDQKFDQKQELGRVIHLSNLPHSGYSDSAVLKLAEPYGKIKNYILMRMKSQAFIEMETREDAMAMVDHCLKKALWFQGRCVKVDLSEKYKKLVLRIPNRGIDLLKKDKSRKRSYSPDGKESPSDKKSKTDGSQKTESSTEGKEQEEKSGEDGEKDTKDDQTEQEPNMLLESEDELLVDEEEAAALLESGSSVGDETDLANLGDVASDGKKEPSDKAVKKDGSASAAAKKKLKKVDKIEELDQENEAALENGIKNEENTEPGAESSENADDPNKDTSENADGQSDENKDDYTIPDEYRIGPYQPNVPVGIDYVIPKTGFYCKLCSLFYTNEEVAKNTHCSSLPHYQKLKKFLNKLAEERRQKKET
UniProt P43487, whole entry, looked up: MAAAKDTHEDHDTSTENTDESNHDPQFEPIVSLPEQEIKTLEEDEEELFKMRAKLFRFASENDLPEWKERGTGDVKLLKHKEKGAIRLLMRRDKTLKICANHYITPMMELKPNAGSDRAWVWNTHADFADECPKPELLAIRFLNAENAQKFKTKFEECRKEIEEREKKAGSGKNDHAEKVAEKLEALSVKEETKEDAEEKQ
UniProt P48444: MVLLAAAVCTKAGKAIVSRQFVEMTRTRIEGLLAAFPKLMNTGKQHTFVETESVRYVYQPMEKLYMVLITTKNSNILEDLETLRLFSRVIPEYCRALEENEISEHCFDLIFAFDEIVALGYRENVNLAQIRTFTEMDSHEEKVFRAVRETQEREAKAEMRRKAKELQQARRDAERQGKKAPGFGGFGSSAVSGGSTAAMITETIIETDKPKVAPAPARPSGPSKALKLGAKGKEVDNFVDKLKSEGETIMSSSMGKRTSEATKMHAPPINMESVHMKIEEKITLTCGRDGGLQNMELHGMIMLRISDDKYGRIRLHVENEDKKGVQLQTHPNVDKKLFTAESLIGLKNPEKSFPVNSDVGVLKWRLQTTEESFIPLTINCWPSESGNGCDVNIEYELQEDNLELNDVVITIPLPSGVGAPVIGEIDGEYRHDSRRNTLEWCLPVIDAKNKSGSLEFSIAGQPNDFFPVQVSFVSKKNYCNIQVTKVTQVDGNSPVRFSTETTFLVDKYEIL

These targets were tested with COC(=O)C#Cc1ccccc1 [methyl 3-phenylpropiolate] (assay: log2 ratio of iodoacetamide-alkyne labeling of the cysteine site, DMSO over compound (competition); higher = stronger covalent engagement of the cysteine by the compound, active = 1 or more). Details: 500 µM; treatment time 1 h; system: HEK293T cell lysate.
How it was run: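 HEK293T lysate (2 mg/mL) was incubated with electrophile (500 µM) or vehicle for 1 h at ambient temperature and then with iodoacetamide alkyne for 1 h. Labelled proteins were clicked to sCIP-TMT reagents, pooled, digested, enriched on streptavidin and measured by Orbitrap Eclipse LC-MS/MS with FAIMS, with FragPipe quantification. The per-cysteine log2 competition ratio is mean control-channel reporter intensity over mean compound-channel reporter intensity. Across three replicates with duplicate channels, cysteines quantified in only one replicate were excluded.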

Row | Target | log2 ratio of iodoacetamide-alkyne labeling
1 | USP5 C219 (UniProt P45974) | inactive: -0.184
2 | SMARCA4 C1359 (UniProt P51532) | inactive: 0.353
3 | SEPHS1 C31 (UniProt P49903) | inactive: 0.175
4 | NUP153 C148 (UniProt P49790) | inactive: 0.324
5 | MKI67 C1251 (UniProt P46013) | inactive: 0.262
6 | UniProt P49841_C14 | inactive: 0.306
7 | MKI67 C1373 (UniProt P46013) | inactive: 0.402
8 | FASN C1127 (UniProt P49327) | inactive: 0.394
9 | GALK1 C351 (UniProt P51570) | inactive: 0.243
10 | IDH2 C154 (UniProt P48735) | inactive: 0.393
11 | PCYT1A C73 (UniProt P49585) | inactive: 0.921
12 | CCT8 C244 (UniProt P50990) | inactive: 0.242
13 | RPS5 C172 (UniProt P46782) | inactive: 0.115
14 | ACADSB C175 (UniProt P45954) | inactive: 0.109
15 | RANBP2 C1196 (UniProt P49792) | inactive: 0.147
16 | NSF C250 (UniProt P46459) | inactive: 0.28
17 | CBX5 C160 (UniProt P45973) | inactive: 0.106
18 | IQGAP1 C660 (UniProt P46940) | inactive: 0.32

Row | Target | log2 ratio of iodoacetamide-alkyne labeling
19 | MSH2 C199 (UniProt P43246) | inactive: 0.134
20 | RPL34 C49 (UniProt P49207) | inactive: 0.379
21 | RANBP2 C581 (UniProt P49792) | inactive: 0.41
22 | FNTB C11 (UniProt P49356) | inactive: 0.277
23 | MAP1B C2065 (UniProt P46821) | inactive: 0.623
24 | PPOX C183 (UniProt P50336) | inactive: 0.262
25 | FASN C1471 (UniProt P49327) | inactive: 0.341
26 | MATR3 C821 (UniProt P43243) | inactive: 0.127
27 | ERF C165 (UniProt P50548) | inactive: 0.582
28 | RBM25 C110 (UniProt P49756) | inactive: 0.329
29 | MKI67 C2206 (UniProt P46013) | inactive: 0.603
30 | DNM2 C27 (UniProt P50570) | inactive: 0.0839
31 | MKI67 C3241 (UniProt P46013) | inactive: 0.453
32 | RANBP1 C132 (UniProt P43487) | inactive: -0.0301
33 | ARCN1 C441 (UniProt P48444) | inactive: 0.317
34 | CCT5 C440 (UniProt P48643) | inactive: 0.26
35 | CCT4 C221 (UniProt P50991) | inactive: 0.272
36 | RPS5 C66 (UniProt P46782) | active: 2.5

In another format: entries from further up

| Row | Target | log2 ratio of iodoacetamide-alkyne labeling |
| --- | --- | --- |
| 20 | RPL34 C49 (UniProt P49207) | inactive: 0.379 |
| 28 | RBM25 C110 (UniProt P49756) | inactive: 0.329 |
